# About 5,500 (1.4%) of roughly 400,000 compounds were called active. The shares of active, inactive and inconclusive entries below differ from those in the screen. Calls follow the shape of the dose curve; as a rule, active = well fitted cell-killing curve with a large enough effect; inconclusive = small, poorly fitted or top-dose-only effect, or effect the other way; inactive = flat fitted curve, though single readings scatter. Potencies of inconclusive entries are doubtful fits and often do not repeat.
# Test: qHTS assay for MDR1-selective chemotherapeutics: Primary screen using the parental adenocarcinoma cell KB-3-1; also: nearly all actives have a fitted effect of over 60% in size
# Details: KB-3-1 viability, CellTiter-Glo ATP luminescence, 72 h; activity change, negative = cytotoxic: at 46.1 µM (top of the series)
# Outline: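 Here the drug-naive KB-3-1 line serves as comparator for MDR sub-line selectivity; cells received compound titrations, 72 h at 37 °C, then CellTiter-Glo readout.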
# % is scaled to controls: 0 for no effect and ±100 for the full control effect; potency is read from the fitted curve at half-maximal effect.
Structure (SMILES),Potency,"activity change, negative = cytotoxic"
COc1cccc(NC(=O)c2cc(C(=O)Nc3cccc(OC)c3)n(C)n2)c1,"inconclusive: 20.6 µM [cytotoxic, single point]",–
Cc1cccc(NS(=O)(=O)c2ccc(-c3cnc(C4CC4)o3)cc2)c1,active: 1.46 µM,–
NC(=S)N=Nc1c(O)n(CCCl)c2ccc(Br)cc12,"inconclusive: 16.4 µM [cytotoxic, single point]",–
CCC(C)NC(=O)c1c(-c2cc(Cl)c(OC)c(Cl)c2)noc1C (stereo not drawn),–,inactive: -0.058%
COc1cc2c(cc1OC)C(C)N(C(=O)Nc1cc(C)cc(C)c1)CC2 (stereo not drawn),"inconclusive: 2.91 µM [cytotoxic, partial curve, poor fit]",–
CCO[C@@H]1OC(C(=O)N2CCOCC2)=C[C@H](c2ccc(C(F)(F)F)cc2)[C@H]1CCCO,"inconclusive: 29.1 µM [cytotoxic, single point]",–
CCOC(=O)c1cnc2c(OC)cccc2c1N1CCN(c2ccccc2OC)CC1,"inconclusive: 29.1 µM [cytotoxic, single point]",–
CSc1nccc(NC(=O)c2cccc(Br)c2)n1,"inconclusive: 23.1 µM [cytotoxic, single point]",–
COc1ccc(S(=O)(=O)N2CCOCC2)cc1NC(=O)CN1C(=O)NC2(CCCC2)C1=O,–,inactive: -0.484%
O=C(Cn1nc(-c2ccccc2)c2cnc3ccccc3c21)Nc1ccccc1,–,inactive: 3.57%
Cc1ccc(C)c(NC(=O)CN2C(=O)C3(SCC(=O)N3c3ccc(C)c(C)c3)c3ccccc32)c1 (stereo not drawn),"inconclusive: 29.1 µM [cytotoxic, single point]",–
Cc1ccc2nc(-c3ccc(Cl)c(NC(=O)c4ccc5c(c4)OCCO5)c3)oc2c1,–,inactive: 7.26%
Cc1nnc(NCc2ccc(Cl)cc2)c2c1nnn2Cc1ccc(F)cc1,–,inactive: 14.6%
CN(C)CCNc1ncnc2c1cnn2-c1ccc(Cl)cc1,"inconclusive: 7.31 µM [cytotoxic, full curve, poor fit]",–
CCOC(=O)N1CCN(C(=O)CSc2ccc(-c3ccc(OC)c(OC)c3)nn2)CC1,"inconclusive: 16.4 µM [rising, single point]",–
CN1CCN(Nc2nn3c(=O)c4ccccc4nc3s2)CC1,–,inactive: -22.2%
O=C(CNc1ccccc1)N/N=C/c1cc([N+](=O)[O-])ccc1N1CCCC1,"inconclusive: 29.1 µM [cytotoxic, single point]",–
CCOC(=O)C1CCN(C(=O)c2sc3nc(-c4ccc(F)cc4)cn3c2C)CC1,–,inactive: -17.6%
O=C(Cc1nc2ccccc2[nH]1)c1cccc([N+](=O)[O-])c1,"inconclusive: 16.4 µM [cytotoxic, partial curve, poor fit]",–
Cc1ccc(C(=O)N[C@@H](C)CN2C3=NC[C@H](C(C)C)N3C[C@H]2Cc2ccc(O)cc2)cc1Br,"inconclusive: 32.6 µM [cytotoxic, single point]",–
COc1ccccc1NC(=S)NN=C(C)c1ccccn1,"inconclusive: 0.0082 µM [cytotoxic, full curve, poor fit]",–
O=C(Nc1cccc2c1CCCC2)c1cc([N+](=O)[O-])ccc1Cl,active: 23.1 µM,–

Structure (SMILES),Potency,"activity change, negative = cytotoxic"
Cc1nc(Nc2ccc(Cl)c(Cl)c2)sc1C(=O)Nc1ccccc1,"inconclusive: 29.1 µM [cytotoxic, single point]",–
Cc1cc(C)cc(-n2c(SCC(=O)N3CCCC3)nc3c([nH]c4ccccc43)c2=O)c1,"inconclusive: 32.6 µM [rising, partial curve, poor fit]",–
CCOc1cc(C2NC(=O)NC(C)=C2C(=O)NCc2ccccc2)c(Cl)cc1O (stereo not drawn),–,inconclusive: 6.39%
CCCCOc1ccc(C(=O)N2CC(=O)Nc3ccc(Br)cc3C2c2ccc(F)cc2)cc1 (stereo not drawn),"inconclusive: 23.1 µM [cytotoxic, single point]",–
COc1ccc(Br)cc1Cn1nnc(C(=O)Nc2ccc(C)cc2C)c1N,"inconclusive: 29.1 µM [cytotoxic, single point]",–
Cc1ccc(C)n1NC(=O)c1ccccc1Cl,–,inactive: -20.7%
CCc1ccc(NC(=O)C[n+]2cc(-c3ccc(C)cc3)n3c2CCC3)cc1,"inconclusive: 20.6 µM [cytotoxic, partial curve]",–
O=C1C(Sc2ccccc2)=C[C@@]2(O)CC[C@@H](O)[C@]1(Sc1ccccc1)[C@H]2O,–,inactive: 8.74%
CC1Cc2cc(S(=O)(=O)N3CCC(C(=O)N(C)Cc4ccco4)CC3)ccc2N1C(=O)C1CCC1 (stereo not drawn),"inconclusive: 23.1 µM [cytotoxic, single point]",–
C=CC(=O)N(CCC)C(c1ccccc1)c1ccccc1OC (stereo not drawn),"inconclusive: 18.4 µM [cytotoxic, single point]",–
CS(=O)(=O)N(CC(=O)Nc1ccc(Br)cc1)c1ccccc1Br,–,inactive: 3.15%
Cc1cccc(C)c1N=C1NN=C(c2ccccc2F)CS1,"inconclusive: 20.6 µM [cytotoxic, partial curve, poor fit]",–
COc1ccc(CCNC(=O)c2nnn(CC(=O)Nc3cccc(F)c3)c2N)cc1OC,"inconclusive: 20.6 µM [rising, single point]",–
O=C(Nc1nnc(-c2ccco2)o1)c1ccc(Cl)s1,"inconclusive: 13 µM [cytotoxic, partial curve]",–
CCc1ccc(-c2csc(-c3c[nH]c4ccccc34)n2)cc1,"inconclusive: 29.1 µM [cytotoxic, single point]",–
COc1cc(SC)ccc1C(=O)NCCOc1c(C)cc(C)cc1C,"inconclusive: 29.1 µM [cytotoxic, single point]",–
COc1cc(OC)c(C(=O)NC2CCCCCC2)cc1OC,"inconclusive: 29.1 µM [cytotoxic, single point]",–
COC(=O)c1c(-c2ccccc2)csc1NC(=O)c1ccco1,"inconclusive: 0.0146 µM [cytotoxic, full curve]",–
Cc1csc(NC(=O)/C=C/c2ccc3c(c2)OCO3)n1,"inconclusive: 9.2 µM [cytotoxic, partial curve, poor fit]",–
FC(F)(F)c1cc(CCN2C(=S)NC[C@@H]2CC2CCCCC2)cc(C(F)(F)F)c1,"inconclusive: 29.1 µM [cytotoxic, single point]",–
Cc1ccc(CN(C(=O)COc2ccc(Cl)cc2)c2ccccn2)o1,–,inactive: -0.933%

# Entries of single compounds as entered above:
# `COc1ccc(Br)cc1Cn1nnc(C(=O)Nc2ccc(C)cc2C)c1N` as listed: Potency: inconclusive: 29.1 µM [cytotoxic, single point]
# `CS(=O)(=O)N(CC(=O)Nc1ccc(Br)cc1)c1ccccc1Br` as listed: activity change, negative = cytotoxic: inactive: 3.15%
